PubChem BioAssay AID2685 (National Center for Advancing Translational Sciences (NCATS), 2010)
The other results are listed elsewhere or left out. The main result of the screen is listed elsewhere. These columns were measured beside it and carry no call. Most of these compounds were active or inconclusive in the main read-out, so they are no random draw. Potencies come from curve fits of mixed quality, noted in brackets.

Test: qHTS Assay for Lipid Storage Modulators in Drosophila S3 Cells;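 on cell number change: cells counted by Cell Tracker Red CMTPX staining in the red channel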
Conditions: BODIPY lipid droplet fluorescence, 18-24 h; for cell number change: measured here: cell count max response, cells fed with added oleic acid
Procedure, shortened: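 Drosophila S3 cells got compounds at several concentrations plus oleic acid (400 uM solution). Laser-scanning cytometry with 488 nm excitation read lipid droplets at 500-530 nm and cells at 575-640 nm. Percent activity was relative to 20 uM Triacsin C.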

[1] = measured here: lipid fluorescence (Fed channel) AC50, cells fed with added oleic acid
[2] = measured here: cell number channel AC50, cells fed with added oleic acid

| Compound | cell number change | AC50 [1] | AC50 [2] |
| --- | --- | --- | --- |
| COc1ccc(N2CCN(Cc3nc4scc(-c5ccccc5)c4c(=O)[nH]3)CC2)cc1 | 19.4% | – | – |
| CCCCn1c(=O)c(CCC(=O)OCC(=O)Nc2ccc(F)c(Cl)c2)nc2ccccc21 | 10.3% | – | – |
| N#CC1=C(S)N(c2ccc(F)cc2)C(c2ccco2)NC1=O (centres undefined) | 4.15% | – | – |
| CC(=O)N1C(=O)C2(Nc3ccccc3N2)c2ccccc21 | -0.255% | 1.46 µM [rising, partial curve] | – |
| O=S(=O)(Nc1cccnc1)c1ccc2c(c1)OCCO2 | -35% | 6.51 µM [falling, single point] | 29.1 µM [falling, single point] |
| CCOc1ccc(Cl)cc1S(=O)(=O)NCc1ccccn1 | -13.5% | – | 0.00461 µM [rising, full curve, poor fit] |
| O=C(O)CN1C(=O)/C(=C\c2cccc(OCc3ccccc3F)c2)SC1=S | 0.704% | 0.146 µM [falling, full curve, poor fit] | – |
| O=C(CCCN1C(=O)c2ccccc2C1=O)Nc1nccs1 | 31.1% | – | – |
| Cc1c(-c2nnc(-c3ccc(C(F)(F)F)cc3)o2)cnn1-c1ccccc1 | -1.36% | 1.3 µM [rising, full curve] | – |
| Cc1nn(Cc2ccc(C(=O)Nc3ccccc3F)cc2)c(C)c1Cl | -32.1% | 20.6 µM [falling, single point] | 29.1 µM [falling, single point] |
| CCN(CC)CC#CCC(O)(c1ccccc1)c1ccccc1 | -7.91% | 0.116 µM [falling, full curve, poor fit] | – |
| CCCCNC(=S)NC(=O)c1ccc([N+](=O)[O-])cc1 | 29.4% | 20.6 µM [rising, partial curve, poor fit] | – |
| O=C(OCC(=O)N1CCN(C(=O)c2ccco2)CC1)c1ccccc1O | -42.5% | 29.1 µM [falling, single point] | 25.9 µM [falling, single point] |
| CCCC(=O)N1CCN(c2nc3c(OC)ccc(Cl)c3s2)CC1 | 54.2% | 29.1 µM [rising, single point] | 32.6 µM [rising, partial curve, poor fit] |
| Clc1cccc(/C=N/N2CCN(Cc3ccccc3)CC2)c1 | 21.6% | – | – |
| CC[C@@]12C(=O)N(c3ccc(C)cc3)C(=O)N1[C@H](c1cccc(C)c1)[C@@H]1C(=O)N(Cc3ccccc3)C(=O)[C@@H]12 | – | 0.366 µM [falling, single point] | – |
| Cc1ccc(CC(=O)Nc2nc3ccccc3s2)cc1 | -16.8% | 29.1 µM [falling, single point] | – |
| Cc1ccc(Cl)c(OCC(=O)NC2CCN(Cc3ccccc3)CC2)c1 | 16.2% | – | 0.411 µM [rising, full curve, poor fit] |
| Cc1ccc(-n2c(SCC(=O)Nc3ccc4c5c(cccc35)CC4)nc(O)c(C)c2=O)cc1 | 11.2% | – | – |
| NNC(=O)c1cc(-c2ccc(O)cc2)nc2ccc(Br)cc12 | 21.8% | 2.06 µM [rising, partial curve, poor fit] | – |

| Compound | cell number change | AC50 [1] | AC50 [2] |
| --- | --- | --- | --- |
| Cc1ccc(NC(=O)CN(C)C(=O)c2cc3c(s2)CCCCC3)cc1 | -8.62% | 14.6 µM [falling, single point] | – |
| c1ccc(Oc2nnc(-c3cccs3)c3ccccc23)cc1 | – | 4.11 µM [rising, full curve, poor fit] | – |
| O=C(O)C1C2C=CC(C2)C1C(=O)NCc1ccoc1 (centres undefined) | -10.1% | 4.61 µM [falling, full curve, poor fit] | – |
| Cc1ccc(Cl)cc1NC(=O)COC(=O)c1ccc(COc2ccc3c(C)cc(=O)oc3c2)cc1 | – | 0.58 µM [rising, partial curve, poor fit] | – |
| CCOC(=O)c1c(C)[nH]c(C(=O)CN2C(=O)NC(C)(C)C2=O)c1C | -69% | – | 20.6 µM [falling, single point] |
| O=C(NCC1CCCO1)C1CCCN1C(=O)Nc1ccc(Cl)c(Cl)c1 (centres undefined) | -6.38% | 0.092 µM [falling, full curve, poor fit] | – |
| CCCCN1C(=O)N(C)C2NC(=S)NC21 (centres undefined) | 11.5% | – | – |
| CCCN(CCC)C(=O)CSc1nc2ccsc2c(=O)n1NC(=O)c1ccccc1 | 2.96% | 29.1 µM [rising, single point] | – |
| CCn1c(SCc2nc3ccccc3s2)nnc1-c1cccs1 | – | 2.31 µM [rising, partial curve] | 2.06 µM [rising, partial curve] |
| CCN1CCN(c2ccc(NC(=O)COc3ccccc3Cl)cc2)CC1 | 2.31% | 0.164 µM [rising, full curve, poor fit] | – |
| Cc1nc(NC(=O)CC(C)C)sc1-c1csc(Nc2ccc(Cl)cc2)n1 | -31.5% | 20.6 µM [falling, single point] | 20.6 µM [falling, single point] |
| CC1CCCN(CCCNC(=O)C2CCCN(c3ncnc4c3nc3n4CCCCC3)C2)C1 (centres undefined) | 28.2% | 29.1 µM [falling, single point] | – |
| COc1ccc(C(C)=O)cc1CN1C(=O)NC2(CCCC2)C1=O | 11% | – | – |
| Cc1c(OC(C)C(=O)O)ccc2c(-c3ccccc3)cc(=O)oc12 (centres undefined) | -15.9% | 4.11 µM [falling, full curve, poor fit] | – |
| Cn1c(=O)c(C(=O)CSc2nnc(Nc3ccccc3)s2)c(N)n(Cc2ccccc2)c1=O | -21% | – | – |
| CC(=O)c1ccc(NS(=O)(=O)c2cc(-c3cnc(C4CC4)o3)ccc2C)cc1 | -7.08% | 6.51 µM [falling, single point] | – |
| O=C(CCNC(=O)c1ccc(Br)cc1)NCCCN1CCOCC1 | 1.75% | 6.51 µM [falling, single point] | – |
| COc1ccc([C@H]2CC(=O)C=C(/C=C/c3ccc(Cl)cc3)C2)cc1 | 5.65% | 6.51 µM [falling, single point] | – |
| CCc1ccc(Nc2n[n+](-c3ccccc3)c(-c3cccc(Cl)c3Cl)s2)cc1 | 3.04% | 1.03 µM [rising, full curve, poor fit] | – |
| CC(=O)C1=C(C)NC(SCC(=O)c2ccc(Cl)cc2Cl)=C(C#N)C1c1ccco1 (centres undefined) | -57.9% | 18.4 µM [falling, partial curve] | 14.6 µM [falling, partial curve] |

| Compound | cell number change | AC50 [1] | AC50 [2] |
| --- | --- | --- | --- |
| CN1N=C2c3ccccc3CCC2C1c1ccc(F)cc1 (centres undefined) | 10.9% | 0.0411 µM [rising, full curve, poor fit] | – |
| CCCCn1c(N)c(N(CCOC)C(=O)c2ccco2)c(=O)[nH]c1=O | -40.1% | – | 29.1 µM [falling, single point] |
| COc1ccc(CC(NC(C)=O)C(=O)NC2CCN(C(=O)c3ccccc3F)CC2)cc1 (centres undefined) | 21.3% | – | – |
| CN(C)c1ccc(N=Cc2cccn2C)cc1 | -33.3% | 6.51 µM [falling, partial curve] | 2.31 µM [falling, full curve] |
| Cc1onc(-c2c(F)cccc2Cl)c1C(=O)c1ccccc1O | -23.5% | 23.1 µM [falling, single point] | – |
| N#C/C(=C/Nc1ccccc1C(=O)O)C(N)=O | -27.4% | 0.231 µM [falling, full curve, poor fit] | – |
| COc1cc(NC(=O)c2ccc(CNc3c(N4CCCC4)c(=O)c3=O)cc2)cc(OC)c1OC | 0.367% | 0.103 µM [falling, full curve, poor fit] | – |
| COc1ccc(Cl)cc1NC(=O)c1ccco1 | 8.05% | 1.84 µM [rising, partial curve] | – |
| NS(=O)(=O)c1ccc(NC(=O)COC(=O)CC2Sc3ccccc3NC2=O)cc1 (centres undefined) | -6.14% | – | 6.51 µM [falling, single point] |
| COc1ccccc1C(=O)Nc1c(C(=O)N(CCN(C)C)Cc2ccco2)oc2ccccc12 | 3.04% | 5.8 µM [rising, single point] | – |
| O=C1CC(c2ccncc2)c2cc3c(cc2N1)OCO3 (centres undefined) | – | 2.59 µM [rising, partial curve] | 1.84 µM [rising, partial curve] |
| Nc1ccccc1Oc1c(F)c(F)c(Oc2ccccc2N)c(F)c1F | -28.9% | 29.1 µM [falling, single point] | – |
| COc1ccc(CNC(=O)CCc2nnc3ccc(NCCCN4CCCC4=O)nn23)cc1 | 4.89% | 29.1 µM [rising, single point] | – |
| CCOC(=O)N1CCC(NC(=O)c2cc3c(=O)n(C)c4ccccc4c3n2C)CC1 | -6.07% | 29.1 µM [falling, single point] | – |
| COc1ccccc1CNC(=O)COc1ccc(S(=O)(=O)N2CCOCC2)cc1C | -21% | – | – |
| CCOC(=O)c1nn(-c2ccccc2)c(=O)cc1OCC(=O)Nc1cc(C)ccc1OC | – | 20.6 µM [falling, single point] | 0.116 µM [falling, full curve, poor fit] |
| O=C(CN(C(=O)CCC(=O)Nc1ccccn1)c1ccc(F)cc1)NCc1ccco1 | -8.57% | 6.51 µM [rising, partial curve] | – |
| CCC1S/C(=N/N=C/c2ccco2)N(c2ccc(F)cc2)C1=O (centres undefined) | -44.8% | 14.6 µM [falling, single point] | 25.9 µM [falling, single point] |
| O=C1NC(c2ccc(Br)cc2)Oc2ccccc21 (centres undefined) | -8.29% | 0.013 µM [rising, full curve, poor fit] | – |
| CCOC(=O)C1CCCN(C(=O)c2cn(CC)c3ccc(S(=O)(=O)N(C)C)cc3c2=O)C1 (centres undefined) | -48.8% | – | 1.84 µM [falling, partial curve] |

Full records, quoted from the list:
`CCC1S/C(=N/N=C/c2ccco2)N(c2ccc(F)cc2)C1=O` (centres undefined) as listed: cell number change: -44.8%; AC50 [1]: 14.6 µM [falling, single point]; AC50 [2]: 25.9 µM [falling, single point]
`NS(=O)(=O)c1ccc(NC(=O)COC(=O)CC2Sc3ccccc3NC2=O)cc1` (centres undefined) as listed: cell number change: -6.14%; AC50 [2]: 6.51 µM [falling, single point]
